Test results: patent publication US20080027094A1, “Tropane Compounds and Pharmaceutical Compositions Comprising the Same as an Active Ingredient” (Ono Pharmaceutical Co., Ltd., priority 2004, published 2008)

These compounds were tested on metacholine-induced airway-constriction (assay: Effect on the airways constriction in guinea pigs (Konzett-Rossler method)). Details: intratracheal application, airway effective dose (Experiment 1) / bladder no-effective dose (Experiment 2).
Format: in vivo
Protocol: The present experiment was carried out with Hartley male guinea pigs (supplied by Nippon SLC Co.) as divided into groups each consisting of 3 to 4 animals. The guinea pigs were anesthetized with pentobarbital sodium (60 mg/kg, given intraperitoneally), and were subjected individually to insertion of a cannula into the airways. Each airway cannula was connected with a volume-controlled respirator (Model SN-480-N, manufactured by Shinano Seisakusho Co.) to perform artificial respiration at a ventilation volume of 5 mL and at a ventilation rate of ca. 70/min. For the purpose of application of metacholine, a catheter was inserted into the carotid vein. The test substance was dissolved in an aqueous solution or aqueous solution containing DMSO, and the solution was applied into the trachea with use of an intratracheal application device for a liquid IA-1b (supplied by Pen-Century Co.) (the application amount of the liquid; 0.8 mL/kg). Prior to application of the test substance, and from 5 to 60 min. thereafter, respectively, metacholine was applied intravenously (10 μg/kg) to induce the airway-constriction, and the pressure at which air was passed through the airways, or the air-passage pressure through the airways, was measured with use of the Konzett-Rossler method. The airways-constriction ratio was taken as a proportion, expressed in percentage, of the air-passage pressure through the airways measured after individual application of the test substance to the maximum air-passage pressure through the airways found when the airways were completely clogged and occluded. The constriction-suppression ratio of the test substance was expressed as a proportion of the average or mean airway-constriction ratio found for the groups not treated through application of the test substance to the average or mean airway-constriction ratio found for the groups treated through application of the test substance. It is to be noticed that the minimum dose, at which not less than 80% of the present reaction is suppressed at a point of time falling within the length of time of 60 min. after application of the test substance, is taken as the effective dose (provided, however, that the airway-constriction suppression ratio, when applied at a dose equivalent to one third of the effective dose, shall be less than 80% at all the points of time falling within the length of time 60 min. after application of the test substance).
With `CCOC(=O)COc1cccc(C[N@+]2(C)[C@@H]3CC[C@H]2C[C@@H](OC(=O)C(O)(c2cccs2)c2cccs2)C3)c1.[Br-]` [Example 14 (4), (1R,3r,5S,8s)-8-[3-(2-Ethoxy-2-oxoethoxy)benzyl]-3-({hydroxy[di(2-thienyl)]acetyl}oxy)-8-methyl-8-azoniabicyclo[3.2.1]octane bromide] the “proportion of the effective dose for the airway-constriction suppression to the no-effective dose for the bladder constriction” value was 1/10. For `CCOC(=O)CCc1ccc(C[N@+]2(C)[C@@H]3C=C[C@H]2C[C@H](OC(=O)C(O)(c2cccs2)c2cccs2)C3)cc1.[Br-]` [Example 25, (1R,3r,5S,8r)-8-[4-(3-Ethoxy-3-oxopropyl)benzyl]-3-({hydroxy[di(2-thienyl)]acetyl}oxy)-8-methyl-8-azoniabicyclo[3.2.1]oct-6-en bromide], the “proportion of the effective dose for the airway-constriction suppression to the no-effective dose for the bladder constriction” value was “ca. 1/30”. With `CCOC(=O)CCCc1ccc(C[N@+]2(C)[C@@H]3C=C[C@H]2C[C@H](OC(=O)C(O)(c2ccccc2)c2ccccc2)C3)s1.[Cl-]` [Example 24, (1R,3r,5S,8r)-8-{[5-(4-Ethoxy-4-oxobutyl)-2-thienyl]-methyl}-3-{[hydroxy(diphenyl)acetyl]oxy}-8-methyl-8-azoniabicyclo[3.2.1]oct-6-en chloride] the “proportion of the effective dose for the airway-constriction suppression to the no-effective dose for the bladder constriction” value was “ca. 1/30”. For `C[N+]1(C)[C@@H]2C[C@@H](OC(=O)C(O)(c3cccs3)c3cccs3)C[C@H]1[C@@H]1O[C@@H]12` [tiotropium, reference compound], the “proportion of the effective dose for the airway-constriction suppression to the no-effective dose for the bladder constriction” value was 10. `CCOC(=O)COc1ccc2cc(C[N@@+]3(C)[C@@H]4CC[C@H]3C[C@@H](OC(=O)C(O)(c3ccccc3)c3ccccc3)C4)ccc2c1.[Br-]` [Example 23, (1R,3r,5S,8r)-8-{[6-(2-Ethoxy-2-oxoethoxy)-2-naphthyl]-methyl}-3-{[hydroxy(diphenyl)acetyl]oxy}-8-methyl-8-azoniabicyclo[3.2.1]octane bromide] was tested, and the “proportion of the effective dose for the airway-constriction suppression to the no-effective dose for the bladder constriction” value was “ca. 1/30”.
